Test results from publication PMC3691600, “Conversion of fatty aldehydes into alk (a/e)nes by in vitro reconstituted cyanobacterial aldehyde-deformylating oxygenase with the cognate electron transfer system” (Biotechnology for Biofuels, 2013).
No constants are given. Whether binding was seen depends on the method and setting.

Chains of the proteins cited; added tags and fusions are not shown. Lines headed by an entry give the natural chain unless they say otherwise; changes in a name come on top.
UniProt P0A3D2: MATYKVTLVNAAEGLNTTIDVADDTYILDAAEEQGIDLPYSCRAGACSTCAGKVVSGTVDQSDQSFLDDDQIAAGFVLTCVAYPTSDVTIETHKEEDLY

Molecular target: Ferredoxin I (SynPcc7942_1499) from Synechococcus elongatus PCC7942 (Synechococcus elongatus PCC7942) (UniProt P0A3D2)
Experiment: AUC; Fd after removal of the N-terminal His-tag with thrombin; estimated molecular weight about 11.8 kDa; both purified

Ferredoxin I (SynPcc7942_1499) from Synechococcus elongatus PCC7942 (from UniProt P0A3D2 1-99)
binding: no binding
